From PubChem BioAssay AID328 (DTP/NCI, 2004)
The list does not hold the whole screen: it gathers tests that were run many times, whatever their T/C, doses with no T/C, and many T/C values between a quarter and a half above the control. Other doses and runs of a compound stand elsewhere. T/C: endpoint of the treated group in % of that of the vehicle group. Some doses have a count of surviving animals in place of a T/C: the source holds a T/C of zero for them, seemingly a mark for toxic or unscored doses. Some survivor counts are full or nearly so, which does not show that the dose was tolerated: survival well below the control is almost never listed, so the zero probably covers shortened survival too. Survivors were counted at the toxicity check, usually on the fifth day, unless a day is given; later deaths do not show. Schedule codes are those of the source, taken here to give the interval after Q, in days (D) or hours (H), and the number of doses after X. Some doses were run more than once; their values stand side by side, smallest first. For survival time, the PubChem record calls one and a half times the control and up active, and a quarter to a half above the control has no call in these data; cut-offs in other NCI protocols can differ. Some T/C values are followed by the survivors on the day toxicity was checked, most often the fifth; where none is given, no animal had died by that day.

Tested on: BDF1 mice, P388 leukemia ip, median survival T/C
Assay: NCI In Vivo Anticancer Drug Screen. Data for tumor model P388 Leukemia (intraperitoneal) in B6D2F1 (BDF1) mice
Settings: T/C endpoint: median survival time, higher T/C = longer survival
Procedure, shortened: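 Compound-treated tumour-bearing mice were compared with vehicle-treated controls. Survival was recorded, and the value is the treated-group measurement divided by the control-group measurement (T/C).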

[1] = dose: 400.0 mg/kg/injection, schedule: Q01DX009 (ip), vehicle: saline with Tween-80
[2] = dose: 5.0 mg/kg/injection, schedule: Q01DX009 (ip), vehicle: saline
[3] = dose: 50.0 mg/kg/injection, schedule: Q01DX009 (ip), vehicle: saline with Tween-80
[4] = dose: 100.0 mg/kg/injection, schedule: Q01DX009 (ip), vehicle: saline with Tween-80
[5] = dose: 200.0 mg/kg/injection, schedule: Q01DX009 (ip), vehicle: saline with Tween-80
[6] = dose: 25.0 mg/kg/injection, schedule: Q01DX009 (ip), vehicle: saline
[7] = dose: 25.0 mg/kg/injection, schedule: Q01DX009 (ip), vehicle: saline with Tween-80
[8] = dose: 200.0 mg/kg/injection, schedule: Q04DX003 (ip), vehicle: saline with Tween-80
[9] = dose: 200.0 mg/kg/injection, schedule: Q01DX010 (ip), vehicle: saline

With `COc1cc(OC)c2c(O)c3c(c(-c4ccc5cc6c(c(O)c5c4O)C(=O)CC(C)(O)C6)c2c1)CC(C)OC3C` (stereo not drawn) the survivor count (dose: 3.12 mg/kg/injection, schedule: Q01DX009 (ip), vehicle: olive oil, sesame oil, peanut oil) was 5 of 6, the survivor count (dose: 6.25 mg/kg/injection, schedule: Q01DX009 (ip), vehicle: olive oil, sesame oil, peanut oil) was 6 of 6 and the survivor count (dose: 12.5 mg/kg/injection, schedule: Q01DX009 (ip), vehicle: olive oil, sesame oil, peanut oil) was 6 of 6. For the same compound, the survivor count (dose: 25.0 mg/kg/injection, schedule: Q01DX009 (ip), vehicle: olive oil, sesame oil, peanut oil) was 5 of 6 and the survivor count (dose: 50.0 mg/kg/injection, schedule: Q01DX009 (ip), vehicle: olive oil, sesame oil, peanut oil) was 6 of 6.
With `O=C1c2ccccc2C(=O)N1CCc1ccccn1` the survivor count [1] was 0 of 6.
`c1ccc([P+](c2ccccc2)(c2ccccc2)c2ccccc2)cc1` was tested, and the T/C (dose: 0.15 mg/kg/injection, schedule: Q01DX009 (ip), vehicle: saline) was 127 % of control, the T/C (dose: 0.31 mg/kg/injection, schedule: Q01DX009 (ip), vehicle: saline) was 136 % of control and the T/C (dose: 0.66 mg/kg/injection, schedule: Q01DX009 (ip), vehicle: saline) was 125 % of control. The T/C (dose: 1.0 mg/kg/injection, schedule: Q01DX009 (ip), vehicle: saline) was 133 % of control, the survivor count (dose: 1.25 mg/kg/injection, schedule: Q01DX009 (ip), vehicle: saline) was 1 of 6 and the survivor count (dose: 2.5 mg/kg/injection, schedule: Q01DX009 (ip), vehicle: saline) was 0 of 6. For the same compound, the T/C (dose: 2.7 mg/kg/injection, schedule: Q04DX003 (ip), vehicle: saline) was 133, 140, 145 % of control, the T/C (dose: 5.0 mg/kg/injection, schedule: Q01DX009 (ip), vehicle: Klucel (hydroxypropylcellulose) (HPC)) was 130 % of control and the survivor count [2] was 0 of 6. For the same compound, the T/C (dose: 5.9 mg/kg/injection, schedule: Q04DX003 (ip), vehicle: saline) was 129 % of control [5 of 6 alive], the T/C (dose: 7.5 mg/kg/injection, schedule: Q04DX003 (ip), vehicle: saline) was 145 % of control and the survivor count (dose: 9.0 mg/kg/injection, schedule: Q04DX003 (ip), vehicle: saline) was 4 of 6. For the same compound, the survivor count (dose: 10.0 mg/kg/injection, schedule: Q01DX009 (ip), vehicle: Klucel (hydroxypropylcellulose) (HPC)) was 4 of 6, the survivor count (dose: 13.0 mg/kg/injection, schedule: Q04DX003 (ip), vehicle: saline) was 3 of 6 and the survivor count (dose: 15.0 mg/kg/injection, schedule: Q01DX009 (ip), vehicle: Klucel (hydroxypropylcellulose) (HPC)) was 1 of 6. The survivor count (dose: 15.0 mg/kg/injection, schedule: Q04DX003 (ip), vehicle: saline) was 3 of 6, the survivor count (dose: 30.0 mg/kg/injection, schedule: Q01DX009 (ip), vehicle: Klucel (hydroxypropylcellulose) (HPC)) was 0 of 6 and the survivor count (dose: 30.0 mg/kg/injection, schedule: Q04DX003 (ip), vehicle: saline) was 6 of 6.
`CN(C)N=Nc1ccc(-c2ccccc2)cc1` was tested, and the T/C [3] was 127 % of control, the survivor count [4] was 5 of 6 and the survivor count [5] was 0 of 6.
In the case of `CC(=O)Nc1c(Cl)c(Cl)c2c(c1Cl)C(=O)c1cc(Cl)ccc1-2`, the survivor count [5] is reported as 5 of 6 and the survivor count [1] is reported as 6 of 6.
`CC(=O)OC1C=CCC23C(=O)C=CC(=O)C12C(=O)c1ccccc1C3=O` (stereo not drawn) was tested, and the survivor count [6] was 2 of 6.
`Cn1cnc([N+](=O)[O-])c1S(N)(=O)=O` was tested, and the T/C (dose: 12.5 mg/kg/injection, schedule: Q01DX009 (ip), vehicle: saline with Tween-80) was 132 % of control, the T/C [7] was 144 % of control and the T/C [3] was 135 % of control. For the same compound, the T/C [4] was 144 % of control.
In the case of `[NH-]C(CCC(N)=O)C(=O)O.[NH-]C(CCC(N)=O)C(=O)O.[Ni+2]` (stereo not drawn), the survivor count (dose: 50.0 mg/kg/injection, schedule: Q01DX005 (ip), vehicle: saline with Tween-80) is reported as 3 of 5, the survivor count (dose: 100.0 mg/kg/injection, schedule: Q01DX005 (ip), vehicle: saline with Tween-80) is reported as 0 of 5 and the survivor count (dose: 200.0 mg/kg/injection, schedule: Q01DX005 (ip), vehicle: saline with Tween-80) is reported as 0 of 5.
`CC1(c2ccc(Cl)s2)C(=O)N(Cl)C(=O)N1Cl` (stereo not drawn) was tested, and the T/C [7] was 125 % of control, the T/C [4] was 140 % of control [5 of 6 alive] and the survivor count [5] was 2 of 6 and 4 of 6. The survivor count (dose: 200.0 mg/kg/injection, schedule: Q04DX003 (ip), vehicle: water) was 6 of 6.
`O=C(CBr)c1ccc(/C=C/c2ccc(Cl)cc2)cc1` was tested, and the survivor count [5] was 0 of 6 and the survivor count [8] was 2 of 6.
With `CCOC(=O)C(N)Cc1ccc(N(CCCl)CCCl)cc1` (stereo not drawn) the survivor count (dose: 100.0 mg/kg/injection, schedule: Q04DX003 (ip), vehicle: saline with Tween-80) was 1 of 6, the survivor count [8] was 0 of 6 and the survivor count (dose: 400.0 mg/kg/injection, schedule: Q04DX003 (ip), vehicle: saline with Tween-80) was 0 of 6.
With `Nc1nc(-c2cccnc2)cc2ccccc12` the survivor count (dose: 50.0 mg/kg/injection, schedule: Q04DX003 (ip), vehicle: saline with Tween-80) was 1 of 6.
`COc1cc2cc3cc4cc(OC)c(OC)cc4c(C)[n+]3cc2cc1OC` (tested in a mixture with another compound) was tested, and the T/C [2] was 140 % of control, the T/C (dose: 10.0 mg/kg/injection, schedule: Q01DX009 (ip), vehicle: saline) was 145 % of control [5 of 6 alive] and the T/C (dose: 20.0 mg/kg/injection, schedule: Q04DX003 (ip), vehicle: saline) was 148 % of control. The T/C (dose: 80.0 mg/kg/injection, schedule: Q04DX003 (ip), vehicle: saline) was 136 % of control, the survivor count (dose: 240.0 mg/kg/injection, schedule: Q01DX009 (ip), vehicle: saline) was 5 of 6 and the survivor count (dose: 320.0 mg/kg/injection, schedule: Q04DX003 (ip), vehicle: saline) was 5 of 6.
For `COc1ccc2c(c1)/C(=C/CCN(C)C)c1ccccc1S2`, the T/C [6] was 127 and 127 % of control [5 of 6 alive], the T/C (dose: 33.0 mg/kg/injection, schedule: Q04DX003 (ip), vehicle: saline) was 131 % of control and the survivor count (dose: 50.0 mg/kg/injection, schedule: Q04DX003 (ip), vehicle: saline) was 4 of 6. The survivor count (dose: 75.0 mg/kg/injection, schedule: Q04DX003 (ip), vehicle: saline) was 4 of 6, the survivor count (dose: 100.0 mg/kg/injection, schedule: Q04DX003 (ip), vehicle: saline) was 4 of 6 and the survivor count (dose: 200.0 mg/kg/injection, schedule: Q04DX003 (ip), vehicle: saline) was 0 of 6. For the same compound, the survivor count (dose: 400.0 mg/kg/injection, schedule: Q04DX003 (ip), vehicle: saline) was 0 of 6.
For `CN1Cc2c(ccc3c2OCO3)[C@@H]2[C@H](O)Cc3cc4c(cc3[C@@H]21)OCO4`, the T/C [9] was 140 % of control and the survivor count (dose: 400.0 mg/kg/injection, schedule: Q01DX010 (ip), vehicle: saline) was 6 of 6.
With `COc1ccc(NC(=O)CC(C)=O)cc1` the survivor count [6] was 6 of 6.
For `CC(=O)NCCSC(=O)C(=O)SCCNC(C)=O`, the survivor count (dose: 300.0 mg/kg/injection, schedule: Q01DX009 (ip), vehicle: Klucel (hydroxypropylcellulose) (HPC)) was 2 of 6.
`CN(C)CC(=O)c1ccc(O)c(O)c1` was tested, and the T/C [9] was 140 % of control, the T/C (dose: 450.0 mg/kg/injection, schedule: Q01DX010 (ip), vehicle: saline) was 127 % of control and the T/C (dose: 675.0 mg/kg/injection, schedule: Q01DX010 (ip), vehicle: saline) was 140 % of control.
For `CSc1nnnn1-c1ccccc1`, the T/C (dose: 25.0 mg/kg/injection, schedule: Q01DX009 (ip), vehicle: Klucel (hydroxypropylcellulose) (HPC)) was 130 % of control.
With `CCCC(O)C(NC(=O)CCl)C(=O)O` (stereo not drawn) the survivor count (dose: 500.0 mg/kg/injection, schedule: Q01DX005 (ip), vehicle: other) was 1 of 6 and the survivor count (dose: 1000.0 mg/kg/injection, schedule: Q01DX005 (ip), vehicle: other) was 0 of 6.
`COc1cc(OC)c(OC)cc1/C=C/c1cc[n+](C)c2ccccc12` was tested, and the T/C [6] was 130 % of control and the survivor count [6] was 6 of 6.
`COC1OC(CO)C(O)C(O)C1O` (stereo not drawn) was tested, and the survivor count (dose: 50.0 mg/kg/injection, schedule: Q01DX009 (ip), vehicle: saline) was 6 of 6.
